Experimental findings from paper PMC3407958 (Pharmacotherapy, 2010) are described below.

By UniProt entry, the sequences of proteins in these tests, tags left out.
UniProt P08183, whole entry: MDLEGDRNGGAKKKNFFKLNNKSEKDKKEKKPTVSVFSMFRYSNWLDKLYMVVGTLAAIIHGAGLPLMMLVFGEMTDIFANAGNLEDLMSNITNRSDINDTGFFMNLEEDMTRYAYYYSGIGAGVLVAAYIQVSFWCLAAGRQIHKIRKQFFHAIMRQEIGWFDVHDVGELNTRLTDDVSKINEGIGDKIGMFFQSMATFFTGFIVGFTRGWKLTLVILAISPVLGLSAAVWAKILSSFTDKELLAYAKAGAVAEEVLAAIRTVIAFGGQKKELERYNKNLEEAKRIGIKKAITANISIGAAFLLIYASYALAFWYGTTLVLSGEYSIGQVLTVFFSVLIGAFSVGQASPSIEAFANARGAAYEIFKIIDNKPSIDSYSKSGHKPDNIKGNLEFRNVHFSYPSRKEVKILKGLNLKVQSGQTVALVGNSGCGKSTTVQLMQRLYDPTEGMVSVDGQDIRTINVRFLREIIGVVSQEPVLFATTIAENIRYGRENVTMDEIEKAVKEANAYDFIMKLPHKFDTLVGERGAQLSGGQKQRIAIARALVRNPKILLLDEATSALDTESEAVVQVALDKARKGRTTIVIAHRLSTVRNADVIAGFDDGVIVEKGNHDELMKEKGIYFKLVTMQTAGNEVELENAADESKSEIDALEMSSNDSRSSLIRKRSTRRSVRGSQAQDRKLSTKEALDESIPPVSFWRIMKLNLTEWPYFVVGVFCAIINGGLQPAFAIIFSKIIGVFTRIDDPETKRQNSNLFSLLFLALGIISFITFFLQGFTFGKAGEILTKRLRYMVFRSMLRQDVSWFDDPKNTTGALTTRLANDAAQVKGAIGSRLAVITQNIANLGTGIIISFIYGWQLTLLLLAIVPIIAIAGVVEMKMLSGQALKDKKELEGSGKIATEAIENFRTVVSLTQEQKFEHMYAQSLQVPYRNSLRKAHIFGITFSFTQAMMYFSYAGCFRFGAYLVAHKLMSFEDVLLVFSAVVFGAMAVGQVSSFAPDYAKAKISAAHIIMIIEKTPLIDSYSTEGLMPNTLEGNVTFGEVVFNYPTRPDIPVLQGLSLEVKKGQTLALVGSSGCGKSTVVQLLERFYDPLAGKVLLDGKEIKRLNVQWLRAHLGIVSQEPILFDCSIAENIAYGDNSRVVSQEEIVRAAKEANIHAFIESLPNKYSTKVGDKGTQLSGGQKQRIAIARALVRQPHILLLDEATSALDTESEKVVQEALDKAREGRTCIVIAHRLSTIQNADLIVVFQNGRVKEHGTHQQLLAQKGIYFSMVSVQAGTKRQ

The target of this data set is P-glycoprotein (P-gp) (Homo sapiens, UniProt P08183). The class given is in vivo, human (healthy volunteers). Conditions: plasma, po, 120 mg, AUC0-∞, fexofenadine 120 mg single oral dose, geometric mean (90% CI).

Like-named read-outs stand apart in the source and are kept apart here.

Usually AUC(0-inf) stands for total exposure, with the tail of the curve extrapolated. Lower therefore signals low exposure. As to `CC(C)(C(=O)O)c1ccc(C(O)CCCN2CCC(C(O)(c3ccccc3)c3ccccc3)CC2)cc1` (centres unmarked) [fexofenadine], the AUC(0-inf) is 1540 ng·h/mL (Post-Echinacea (28 days, 500 mg three times daily)) and 1570 ng·h/mL (Pre-Echinacea).
